# PubChem BioAssay AID504744 – Drosophila RNAi Screening Center | 2011
# Test: 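Uncover factors, including feedback loops, that control dAkt activation in fly cells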 (primary screen)
# Cells: Drosophila Kc167 cells
# Knock-down reagent: long dsRNA against Drosophila genes, 250 ng dsRNA per well of a 384-well plate
# Duration: 3 days of knock-down, then overnight serum-free starvation before stimulation
# Conditions: bovine insulin at 387 nM for 10 minutes after 12 h without serum
# Read-out: 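Per-well phospho-dAkt level from an in-cell fluorescent antibody stain, divided by a DNA-dye signal; log2 residuals turned into z-scores that take cell number into account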
# Rule for the call: 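Hit in the insulin screen when the two-replicate mean z-score is more extreme than plus or minus 2.5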
# In all, the deposit lists about 23,000 reagents; this is a random part of those with a known target gene and a result. Of all reagents, 98 (0.43%) got an active call. 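Only hit calls are given; the phospho-dAkt signals, z-scores and hit direction were not deposited.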 Names joined by + are all predicted targets of the reagent.
Gene,DRSC id,activity call
pkm (Pinkman),DRSC19674,inactive
Ugt49B2 (UDP-glycosyltransferase family 49 member B2),DRSC16049,inactive
Culd (CUB and LDLa domain),DRSC10262,inactive
Lsm11,DRSC06238,inactive
CG3270,DRSC04988,inactive
Cyp6t1 (Cytochrome P450 6t1),DRSC20564,inactive
Syx1A (Syntaxin 1A),DRSC15359,inactive
Syx1A (Syntaxin 1A),DRSC21554,inactive
cora (coracle),DRSC07597,inactive
CG3609,DRSC00620,inactive
ara (araucan),DRSC11322,inactive
Gal (beta galactosidase),DRSC03134,inactive
LTV1 (LTV1 ribosome biogenesis factor),DRSC05951,inactive
CG2983,DRSC00558,inactive
CG4440,DRSC02747,inactive
Fst (Frost),DRSC16491,inactive
CG31937,DRSC00514,inactive
CG7173,DRSC11812,inactive
CG13937,DRSC08406,inactive
CG34232,DRSC05332,inactive
bol (boule),DRSC08964,inactive
bol (boule),DRSC10444,inactive
bol (boule),DRSC11329,inactive
RtcB (RtcB RNA ligase),DRSC03280,inactive
nopo (no poles),DRSC06918,inactive
IPIP (Inositol phosphatase interacting protein),DRSC02164,inactive
mal (maroon-like),DRSC20581,inactive
onecut,DRSC17175,inactive
flip (flippy),DRSC12326,inactive
CG14120,DRSC10124,inactive
CG11300,DRSC04104,inactive
Deaf1 (Deformed epidermal autoregulatory factor-1),DRSC11143,inactive
Deaf1 (Deformed epidermal autoregulatory factor-1),DRSC22786,inactive
smid (smallminded),DRSC11398,inactive
CG12009,DRSC08217,inactive
gammaSnap2 (gamma Soluble NSF attachment protein 2),DRSC15992,inactive
CG33796,DRSC09417,inactive
stl (stall),DRSC04396,inactive
CG34338,DRSC17535,inactive
beat-Va (beaten path Va),DRSC14192,inactive
Chmp1 (Charged multivesicular body protein 1),DRSC10401,inactive
CG14868,DRSC14991,inactive
Cks30A (Cyclin-dependent kinase subunit 30A),DRSC03292,inactive
ppk8 (pickpocket 8),DRSC17269,inactive
rhi (rhino),DRSC05996,inactive
CG11997,DRSC14464,inactive
CG3640,DRSC04399,inactive
dati (datilografo),DRSC17128,inactive
dati (datilografo),DRSC17153,inactive
Ice1 (Interacts with the C terminus of ELL 1),DRSC04191,inactive
dpr19 (defective proboscis extension response 19),DRSC02237,inactive
uri (unconventional prefoldin RPB5 interactor),DRSC04111,inactive
tth (toothrin),DRSC19435,inactive
Mtk (Metchnikowin),DRSC07475,inactive
CG12395,DRSC19453,inactive
CG4218,DRSC01939,inactive
Lsd-1 (Lipid storage droplet-1),DRSC14236,inactive
Alp4 (Alkaline phosphatase 4),DRSC14116,inactive
Mst77F (Male-specific transcript 77F),DRSC11871,inactive
CG6220,DRSC06969,inactive
RpL3 + CG6693,DRSC16097,inactive
CG15549,DRSC15087,inactive
att-ORFB + DPCoAC,DRSC15556,inactive
wa-cup (walker cup),DRSC12511,inactive
CG3748,DRSC02716,inactive
Nep4 (Neprilysin 4),DRSC15539,inactive
CG1764,DRSC19779,inactive
CG13449,DRSC09996,inactive
Obp56h (Odorant-binding protein 56h),DRSC06433,inactive
CG17190,DRSC15184,inactive
CG4553,DRSC15595,inactive
Gle1 (Gle1 RNA export mediator),DRSC06485,inactive
CG10348,DRSC02043,inactive
CG10348,DRSC21908,inactive
CG31223,DRSC15115,inactive
Ttc7 (Tetratricopeptide repeat domain 7),DRSC04836,inactive
Gadd45 (Growth arrest and DNA damage-inducible 45),DRSC06033,inactive
Akt (Akt kinase),DRSC14108,active
CG15056,DRSC19630,inactive
Acbp3 (Acyl-CoA binding protein 3),DRSC11022,inactive
ex (expanded),DRSC00817,inactive
Lcp3 (Larval cuticle protein 3),DRSC07457,inactive
SmD1 (Small ribonucleoprotein particle protein SmD1),DRSC09800,inactive
Gel (Gelsolin),DRSC12350,inactive
Polr1A (RNA polymerase I subunit A),DRSC07535,inactive
CG42264,DRSC18074,inactive
CG42264,DRSC18075,inactive
CG15747,DRSC19713,inactive
CG11251,DRSC09825,inactive
CG42671,DRSC09093,inactive
CG42671,DRSC10321,inactive
dysc (dyschronic),DRSC10273,inactive
dysc (dyschronic),DRSC11040,inactive
dysc (dyschronic),DRSC22334,inactive
dysc (dyschronic),DRSC22824,inactive
CG32462,DRSC11851,inactive
CG3792,DRSC02725,inactive
Myc,DRSC18762,inactive
CR30029 (pseudo),DRSC06724,inactive
CG33958,DRSC06472,inactive
CG33958,DRSC06944,inactive
Pof (Painting of fourth),DRSC04405,inactive
CG46301,DRSC01916,inactive
Wnt2 (Wnt oncogene analog 2),DRSC05160,inactive
Wnt2 (Wnt oncogene analog 2),DRSC07574,inactive
CG8170,DRSC07087,inactive
RpL13 (Ribosomal protein L13),DRSC03416,inactive
CG31445,DRSC14443,inactive
CG13047,DRSC09928,inactive
Ubc10 (Ubiquitin conjugating enzyme 10),DRSC07568,inactive
Nepl16 (Neprilysin-like 16),DRSC14650,inactive
CG1622,DRSC19745,inactive
Vha16-4 + CG15614,DRSC07321,inactive
Coq8 (Coenzyme Q8),DRSC19900,inactive
CG15233,DRSC04967,inactive
NimC4 (Nimrod C4),DRSC01945,inactive
mRpS7 (mitochondrial ribosomal protein S7),DRSC02814,inactive
Ssdp (Sequence-specific single-stranded DNA-binding protein),DRSC16211,inactive
"E(spl)m4-BFM (Enhancer of split m4, Bearded family member)",DRSC16992,inactive
Alh (Alhambra),DRSC12447,inactive
Alh (Alhambra),DRSC12487,inactive
Alh (Alhambra),DRSC12488,inactive
spn-A (spindle A),DRSC16812,inactive
BomBc3 (Bomanin Bicipital 3),DRSC15873,inactive
CG34353,DRSC14493,inactive
CG34353,DRSC14517,inactive
CG34353,DRSC14563,inactive
CG34353,DRSC15837,inactive
CG34353,DRSC22429,inactive
CG8399,DRSC07163,inactive
CG33109,DRSC16533,inactive
CG18568,DRSC06768,inactive
Tep4 (Thioester-containing protein 4),DRSC03453,inactive
schlank,DRSC18102,inactive
schlank,DRSC18313,inactive
"Arpc5 (Actin-related protein 2/3 complex, subunit 5)",DRSC00730,inactive
Hsf (Heat shock factor),DRSC07443,inactive
Nph (Nucleophosmin),DRSC16342,inactive
"Pka-R2 (Protein kinase, cAMP-dependent, regulatory subunit type 2)",DRSC07509,inactive
FMRFa (FMRFamide),DRSC07428,inactive
CG11811,DRSC09862,inactive
"PheRS-m (Phenylalanyl-tRNA synthetase, mitochondrial)",DRSC05915,inactive
CG10445,DRSC14247,inactive
CG9175,DRSC03153,inactive
Sin3A,DRSC07552,inactive
CG31454,DRSC14365,inactive
CG31454,DRSC22801,inactive
RpL10Ab (Ribosomal protein L10Ab),DRSC10798,inactive
CheB42a (Chemosensory protein B 42a),DRSC22881,inactive
ZnT49B (Zinc transporter 49B),DRSC07225,inactive
Adi1 (Acireductone dioxygenase 1),DRSC10945,inactive
Adi1 (Acireductone dioxygenase 1),DRSC21485,inactive
CG18747,DRSC15384,inactive
Dso1 (Daisho1),DRSC21815,inactive
mus304 (mutagen-sensitive 304),DRSC11372,inactive
l(2)k01209 (lethal (2) k01209),DRSC06889,inactive
Ppt1 (Palmitoyl-protein thioesterase 1),DRSC17806,inactive
CG3081,DRSC18571,inactive
Hsp70Aa + Hsp70Bb + Hsp70Ba + 3 more,DRSC15380,inactive
SkpD (SKP1-related D),DRSC22208,inactive
RabX4,DRSC22189,inactive
Msh6,DRSC10759,inactive
CG7025,DRSC03002,inactive
CG8093,DRSC07078,inactive
CG3713,DRSC18648,inactive
dgo (diego),DRSC06134,inactive
CG12134,DRSC06109,inactive
psq (pipsqueak),DRSC07668,inactive
Ppr-Y,DRSC20892,inactive
CG14443,DRSC17936,inactive
IKKepsilon (I-kappaB kinase epsilon),DRSC03550,inactive
CG11249,DRSC11645,inactive
CG8534,DRSC16439,inactive
CG31788,DRSC01630,inactive
CG13933,DRSC08402,inactive
CG6108 (retired record),DRSC02929,inactive
ato (atonal),DRSC16904,inactive
atk (artichoke),DRSC11418,inactive
atk (artichoke),DRSC11769,inactive
CG32733 (retired record),DRSC17481,inactive
fusl (fuseless),DRSC02351,inactive
dbf (doublefault),DRSC02570,inactive
Cdc6 (Cell division cycle 6),DRSC10563,inactive
ND-49 (NADH dehydrogenase (ubiquinone) 49 kDa subunit),DRSC17151,inactive
by (blistery),DRSC16482,inactive
Cyp309a1 (Cytochrome P450 309a1),DRSC00747,inactive
CG2765,DRSC04315,inactive
Prx2 (Peroxiredoxin 2),DRSC20256,inactive
wor (worniu),DRSC03637,inactive
CG8043,DRSC16368,inactive
Inx3 (Innexin 3),DRSC14857,inactive
Tet (Ten-Eleven Translocation (TET) family protein),DRSC08550,inactive
CG4462,DRSC15583,inactive
CG6293,DRSC16011,inactive
Mctp (Multiple C2 domain and transmembrane region protein),DRSC06510,inactive
Mctp (Multiple C2 domain and transmembrane region protein),DRSC22896,inactive
CG4734,DRSC06885,inactive
CG4734,DRSC22072,inactive
CG7409,DRSC10842,inactive
CG42346,DRSC20622,inactive
CG42346,DRSC20644,inactive
